Counter-ions that a name gives are not always drawn. This is one part of the list. Hit calls seldom repeat between salt and free forms of one compound.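 In K562 cells expressing nanoluciferase-fused kinases, luminescence was recorded at 4 h intervals between 2 and 18 h, normalized as percent of control with DMSO at 100% and a positive control at 0%. A significant (2 sigma) signal drop marks a time point as decreased. The authors' rule for a hit is not shown and takes in more than the number of time points.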
target: TYK2 (UniProt P29597); test: kinase-Nluc reporter destabilization hit call (1 = scored as downregulated) (binary); higher = compound decreases kinase abundance; conditions: 2.5 µM; K562; 2-18 h

Sequences of proteins named here, by UniProt entry; tags and fusion partners are left off. A change or cut given only in a name is not applied to a line headed by its entry.
UniProt P29597: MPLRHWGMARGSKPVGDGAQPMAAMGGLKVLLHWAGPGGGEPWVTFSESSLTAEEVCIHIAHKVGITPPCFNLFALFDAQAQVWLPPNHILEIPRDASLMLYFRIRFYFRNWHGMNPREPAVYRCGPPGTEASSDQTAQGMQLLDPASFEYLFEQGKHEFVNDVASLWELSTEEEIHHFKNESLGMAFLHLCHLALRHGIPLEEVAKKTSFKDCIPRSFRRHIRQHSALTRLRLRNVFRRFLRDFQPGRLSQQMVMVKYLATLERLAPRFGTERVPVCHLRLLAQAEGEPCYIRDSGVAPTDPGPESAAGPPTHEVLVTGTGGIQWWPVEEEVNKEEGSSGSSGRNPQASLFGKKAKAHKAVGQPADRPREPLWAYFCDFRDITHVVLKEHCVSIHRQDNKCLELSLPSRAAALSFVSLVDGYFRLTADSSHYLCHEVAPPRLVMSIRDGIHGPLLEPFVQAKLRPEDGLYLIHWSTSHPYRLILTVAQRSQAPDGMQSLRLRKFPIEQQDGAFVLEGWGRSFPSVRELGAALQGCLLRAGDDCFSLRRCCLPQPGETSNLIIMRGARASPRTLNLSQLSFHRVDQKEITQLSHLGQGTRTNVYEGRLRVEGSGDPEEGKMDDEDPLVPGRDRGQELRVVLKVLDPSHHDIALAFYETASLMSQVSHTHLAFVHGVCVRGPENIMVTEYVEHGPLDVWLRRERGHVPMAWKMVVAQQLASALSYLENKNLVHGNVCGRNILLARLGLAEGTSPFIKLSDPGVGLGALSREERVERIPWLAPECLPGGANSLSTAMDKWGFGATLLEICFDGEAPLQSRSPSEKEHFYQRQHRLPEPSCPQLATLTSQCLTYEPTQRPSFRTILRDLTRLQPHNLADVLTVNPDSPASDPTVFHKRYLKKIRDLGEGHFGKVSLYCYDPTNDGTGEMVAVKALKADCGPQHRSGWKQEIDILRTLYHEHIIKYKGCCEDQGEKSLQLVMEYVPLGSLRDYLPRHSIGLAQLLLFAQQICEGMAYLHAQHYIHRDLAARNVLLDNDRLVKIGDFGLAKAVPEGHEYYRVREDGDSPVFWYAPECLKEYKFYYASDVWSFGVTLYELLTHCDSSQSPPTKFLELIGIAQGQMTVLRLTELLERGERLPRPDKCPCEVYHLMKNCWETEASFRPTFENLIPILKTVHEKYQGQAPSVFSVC

SMILES	kinase-Nluc reporter destabilization hit call
C=CC(=O)Nc1cc(Nc2nccc(-c3cn(C)c4ccccc34)n2)c(OC)cc1N(C)CCN(C)C [Osimertinib mesylate]	inactive: 0
Cc1cccc(-c2[nH]c(CNc3ccccc3F)nc2-c2ccc3ncnn3c2)n1 [Vactosertib (Hydrochloride)]	inactive: 0
CC(C)Oc1ccc(-c2nn([C@@H](C)c3oc4ccc(F)cc4c(=O)c3-c3cccc(F)c3)c3ncnc(N)c23)cc1F [Umbralisib (hydrochloride)]	inactive: 0
COc1ccc(S(=O)(=O)Nc2ccccc2CN(C)C/C=C/c2ccc(Cl)cc2)cc1 [KN-92 (phosphate)]	inactive: 0
CN(C)C(=O)c1cc2cnc(Nc3ccc(N4CCNCC4)cn3)nc2n1C1CCCC1 [Ribociclib succinate hydrate]	inactive: 0
C=CC(=O)Nc1cc2c(Nc3ccc(F)c(Cl)c3)ncnc2cc1C#CC(C)(C)N1CCN(C)CC1	inactive: 0
Cc1cccc(/C=N/Nc2cc(N3CCOCC3)nc(OCCc3ccccn3)n2)c1 [Apilimod]	inactive: 0
COc1cc2c(Oc3ccc4[nH]c(C)cc4c3F)ncnc2cc1OCCCN1CCCC1 [Cediranib]	inactive: 0
Cc1cc(Nc2ncc(Cl)c(Nc3ccccc3S(=O)(=O)C(C)C)n2)c(OC(C)C)cc1C1CCNCC1 [Ceritinib dihydrochloride]	inactive: 0
Nc1ncnc2c1c(-c1ccc(Oc3ccccc3)cc1)nn2[C@@H]1CCCNC1	inactive: 0
CNC(=O)c1cc(Oc2ccc(NC(=O)Nc3ccc(Cl)c(C(F)(F)F)c3)c(F)c2)ccn1 [Regorafenib]	inactive: 0

same assay, conditions: 10 µM; K562; 2-18 h

SMILES	kinase-Nluc reporter destabilization hit call
COc1ncc(F)cc1CNc1ccc(Cc2c[nH]c3ncc(C)cc23)c(F)n1 [PLX5622 (hemifumarate)]	inactive: 0
C#Cc1cccc(Nc2ncnc3cc(OCCOC)c(OCCOC)cc23)c1 [Erlotinib]	active: 1
Oc1cccc(-c2nc(N3CCOCC3)c3oc4ncccc4c3n2)c1	inactive: 0
C#Cc1cccc(Nc2ncnc3cc(OCCOC)c(OCCO)cc23)c1 [Desmethyl Erlotinib (hydrochloride)]	active: 1
C[C@@H](N)[C@H]1CC[C@H](C(=O)Nc2ccncc2)CC1	inactive: 0
C#Cc1cccc(Nc2ncnc3cc4c(cc23)OCCOCCOCCO4)c1 [Icotinib]	inactive: 0
C#Cc1cccc(Nc2ncnc3cc4c(cc23)OCCOCCOCCO4)c1 [Icotinib (Hydrochloride)]	inactive: 0
O=C(c1ccc(F)c(F)c1Nc1ccc(I)cc1F)N1CC(O)([C@@H]2CCCCN2)C1 [Cobimetinib]	inactive: 0
COc1cc2nccc(Nc3cc(OC)c(OC)c(OC)c3)c2cc1OC [GAK inhibitor 49 (hydrochloride)]	inactive: 0
O=C(c1ccc(F)c(F)c1Nc1ccc(I)cc1F)N1CC(O)([C@@H]2CCCCN2)C1 [Cobimetinib (hemifumarate)]	inactive: 0
C=CC(=O)Nc1cc(Nc2ncc(C(=O)OC(C)C)c(-c3cn(C)c4ccccc34)n2)c(OC)cc1N(C)CCN(C)C [Mobocertinib (succinate)]	inactive: 0
CNC(=O)c1ccccc1Nc1cc(Nc2ccc(N3CCOCC3)cc2OC)ncc1C(F)(F)F [PND-1186 (hydrochloride)]	inactive: 0
Cc1cccc(/C=N/Nc2cc(N3CCOCC3)nc(OCCc3ccccn3)n2)c1 [Apilimod (mesylate)]	inactive: 0
O=C(O)c1ccc2c(c1)nc(Nc1cccc(Cl)c1)c1ccncc12 [Silmitasertib (sodium salt)]	inactive: 0
C[C@H](CCC(=O)NCCS(=O)(=O)O)[C@H]1CC[C@H]2[C@@H]3[C@@H](O)C[C@@H]4C[C@H](O)CC[C@]4(C)[C@H]3CC[C@]12C [Tauroursodeoxycholate (dihydrate)]	inactive: 0
COc1cc2c(cc1OC)-c1c(C)c3ccc(OC)c(OC)c3c[n+]1CC2 [Dehydrocorydaline (chloride)]	inactive: 0
Clc1ccc(C2(c3ccc(-c4cn[nH]c4)cc3)CCNCC2)cc1	inactive: 0
CCCC(=O)Nc1ncnc2c1ncn2[C@@H]1O[C@@H]2COP(=O)(O)O[C@H]2[C@H]1OC(=O)CCC [Bucladesine (calcium)]	inactive: 0
CCS(=O)(=O)N1CCN(c2ccc(Nc3ncc(C(N)=O)c(NC4CC4)n3)cc2)CC1 [Cerdulatinib]	inactive: 0
CCS(=O)(=O)N1CC(CC#N)(n2cc(-c3ncnc4[nH]ccc34)cn2)C1 [Baricitinib (phosphate)]	inactive: 0
O=C(Nc1cnn2ccc(N3CCC[C@@H]3c3cc(F)ccc3F)nc12)N1CC[C@H](O)C1 [Larotrectinib sulfate]	inactive: 0
C[C@@H](N)c1ccc(C(=O)Nc2ccnc3[nH]ccc23)cc1	inactive: 0
C[S+]([O-])c1ccc(-c2nc(-c3ccc(F)cc3)c(-c3ccncc3)[nH]2)cc1 (stereo not given)	inactive: 0
CS(=O)(=O)N1CCN(Cc2cc3nc(-c4cccc5[nH]ncc45)nc(N4CCOCC4)c3s2)CC1 [Pictilisib (dimethanesulfonate)]	inactive: 0

Taken from above:
For kinase-Nluc reporter destabilization hit call, C=CC(=O)Nc1cc(Nc2ncc(C(=O)OC(C)C)c(-c3cn(C)c4ccccc34)n2)c(OC)cc1N(C)CCN(C)C [Mobocertinib (succinate)] is entered as inactive: 0
For kinase-Nluc reporter destabilization hit call, COc1ncc(F)cc1CNc1ccc(Cc2c[nH]c3ncc(C)cc23)c(F)n1 [PLX5622 (hemifumarate)] is entered as inactive: 0

From the supplement of paper PMC12823440, “Inhibitors supercharge kinase turnover through native proteolytic circuits” (Nature, 2025)
